This assay deals with His-tagged SPP1 secreted by BC cells (coculture with THP-1 cells) (UniProt P10451). The experiment in a line: co-IP; M1-polarized THP-1 cells with His-tagged SPP1 secreted by BC cells; protein A/G beads with antibody, 5 h, 4 °C; IP buffer 20 mM Tris-HCl pH 7.5, 150 mM NaCl, 1% Triton X-100; western blot.

Chains of the proteins cited; added tags and fusions are not shown. Lines headed by an entry give the natural chain unless they say otherwise; changes in a name come on top. Residues count along the entry.
UniProt P10451, residues 17-314: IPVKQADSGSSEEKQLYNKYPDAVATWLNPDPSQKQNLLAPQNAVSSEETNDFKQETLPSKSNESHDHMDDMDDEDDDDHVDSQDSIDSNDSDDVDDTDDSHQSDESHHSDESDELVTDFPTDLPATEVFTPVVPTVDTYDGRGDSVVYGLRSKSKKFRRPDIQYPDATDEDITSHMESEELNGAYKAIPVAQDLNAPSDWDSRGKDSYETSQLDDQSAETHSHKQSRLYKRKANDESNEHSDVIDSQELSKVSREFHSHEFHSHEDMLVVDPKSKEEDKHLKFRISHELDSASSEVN
UniProt P13612: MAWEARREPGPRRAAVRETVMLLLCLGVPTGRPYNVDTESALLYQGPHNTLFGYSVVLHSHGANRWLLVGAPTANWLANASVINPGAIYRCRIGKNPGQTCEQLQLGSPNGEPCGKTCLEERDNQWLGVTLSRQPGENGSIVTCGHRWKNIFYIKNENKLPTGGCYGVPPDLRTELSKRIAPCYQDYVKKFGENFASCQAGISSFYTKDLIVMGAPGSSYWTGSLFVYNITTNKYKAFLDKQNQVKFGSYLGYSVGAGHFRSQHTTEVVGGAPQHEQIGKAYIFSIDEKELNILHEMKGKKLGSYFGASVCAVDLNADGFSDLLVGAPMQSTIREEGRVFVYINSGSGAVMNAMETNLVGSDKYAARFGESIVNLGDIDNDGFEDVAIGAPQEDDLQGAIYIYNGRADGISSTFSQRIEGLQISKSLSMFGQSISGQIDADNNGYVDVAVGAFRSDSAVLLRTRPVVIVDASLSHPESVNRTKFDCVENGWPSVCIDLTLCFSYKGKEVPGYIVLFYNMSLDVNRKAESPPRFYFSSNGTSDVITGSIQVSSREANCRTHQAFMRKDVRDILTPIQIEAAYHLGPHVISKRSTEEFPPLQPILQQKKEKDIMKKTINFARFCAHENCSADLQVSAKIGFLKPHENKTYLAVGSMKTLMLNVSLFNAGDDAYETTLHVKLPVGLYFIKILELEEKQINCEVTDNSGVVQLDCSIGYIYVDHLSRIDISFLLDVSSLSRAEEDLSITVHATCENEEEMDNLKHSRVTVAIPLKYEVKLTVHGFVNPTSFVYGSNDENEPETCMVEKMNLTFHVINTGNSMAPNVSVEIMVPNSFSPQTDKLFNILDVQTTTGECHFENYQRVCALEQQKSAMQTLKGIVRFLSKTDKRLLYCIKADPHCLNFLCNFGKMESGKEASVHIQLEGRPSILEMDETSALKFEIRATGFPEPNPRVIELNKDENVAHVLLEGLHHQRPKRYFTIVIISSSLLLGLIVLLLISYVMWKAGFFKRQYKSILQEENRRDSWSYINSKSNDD

No constants are given. Whether binding was seen depends on the method and setting. Binding seen in cells or lysates may run through a third protein. Some results given as binding are weak or reduced against the parent protein; the word gives no strength.

Binding data for one substance are collected here from paper PMC12261641.

With “integrin α4/β1 (ITGA4/ITGB1) complex, human, endogenous in THP-1 cells (from UniProt P13612 34-1032; P05556 21-798)”, the binding entry is listed as “binds”.
